From US11066630B2, “Device and method for analysis of tissue constructs” (The Johns Hopkins University, priority 2015, dated 2021)
For at least one compound, name, drawing or mass did not settle the structure.

Columns and labels:
[1] = system: primary human airway epithelial cells (NHBE); readout on HASM cells; assay: ASM cell contraction (OMTC stiffness) in response to infranatant from drug-treated epithelial cells exposed to compressive stress; assay type: cell-based
Procedure: (§1) Primary human epithelial and smooth muscle cells were harvested from the proximal airways (first through third order bronchi) of donor lungs unsuitable for transplantation (Table I) in accordance with the Institutional Review Boards at the University of Pennsylvania. Primary normal human bronchial epithelial (NHBE) cells were grown in collagen-coated flasks (GIBCO) using serum-free BEGM Bronchial Epithelial Cell Growth Medium™ with BulletKit™ Supplements (Lonza) and subsequently trypsinized and seeded onto porous polycarbonate membranes (either inside microfluidic devices or on transwell inserts) at 100,000 cells/cm^2. The polycarbonate membranes were coated with collagen type I (30 μg/ml; GIBCO) at 37° C. for 18 h before cell seeding. After NHBE cells reached confluence (within 3-5 days), the apical medium was removed and the basal medium was replaced with differentiation medium (PneumaCult-ALI™ Medium and Supplements, StemCell Technologies). The NHBE cells were maintained at the ALI for 2-3 weeks, until they differentiated into a pseudostratified layer. Excess mucus on the air side was washed away with warm PBS weekly. After NHBE differentiation in the microfluidic chips, primary HASM cells were seeded into the bottom compartment. Approximately 18 h before the live-cell micromechanical experiments using MTC, the culture medium of HASM cells was changed to serum-free minimal media (1:1 vol/vol mixture of DMEM Dulbecco's modified Eagle's medium and Ham's F-12 medium, supplemented with insulin (10 mg/ml), transferrin (5.5 mg/ml), and selenium (6.7 mg/ml)), and cells were maintained at 37° C. in humidified air containing 5% CO2. The overnight media was then washed and replaced with fresh minimal media before the experiments. This minimal media procedure was applied to NHBE cells as well before compressive-stress application. […]
Magnetic twisting cytometry with optical detection was used to quantitatively assess dynamic changes in cell stiffness as an indicator of single-cell contraction or relaxation of HASM cells, as previously described. […]

airway epithelial cells = assay: Gene expression analysis (TaqMan real-time PCR) in airway epithelial cells; assay type: cell-based, human
Procedure: as §1, with “compartment.” for “compartment. Approximately 18 h before the live-cell micromechanical experiments using MTC, the culture medium of HASM cells was changed to serum-free minimal media (1:1 vol/vol mixture of DMEM Dulbecco's modified Eagle's medium and Ham's F-12 medium, supplemented with insulin (10 mg/ml), transferrin (5.5 mg/ml), and selenium (6.7 mg/ml)), and cells were maintained at 37° C. in humidified air containing 5% CO2. The overnight media was then washed and replaced with fresh minimal media before the experiments. This minimal media procedure was applied to NHBE cells as well before compressive-stress application.”

NHBE cells = assay: PGE2 content of epithelial infranatant (EIA kit); assay type: cell-based, human; conditions: epithelial cells with or without compressive stress
Procedure: Primary human epithelial and smooth muscle cells were harvested from the proximal airways (first through third order bronchi) of donor lungs unsuitable for transplantation (Table I) in accordance with the Institutional Review Boards at the University of Pennsylvania. Primary normal human bronchial epithelial (NHBE) cells were grown in collagen-coated flasks (GIBCO) using serum-free BEGM Bronchial Epithelial Cell Growth Medium™ with BulletKit™ Supplements (Lonza) and subsequently trypsinized and seeded onto porous polycarbonate membranes (either inside microfluidic devices or on transwell inserts) at 100,000 cells/cm^2. The polycarbonate membranes were coated with collagen type I (30 μg/ml; GIBCO) at 37° C. for 18 h before cell seeding. […]
Media from the basal compartments (infranatant) were collected from control samples or after application of 30 cmH2O compressive stress on NHBE cells, and were assayed for the presence of PGE2 using a commercial EIA kit (DetectX™ Prostaglandin E2 High Sensitivity Immunoassay Kit, Arbor Assays, Ann Arbor, Mich.) following the manufacturer's instructions. The absorbance in the samples was measured at 450 nm with a microplate reader (Molecular Devices, Sunnyvale, Calif.). […]

For Cc1ccc(-c2cc(C(F)(F)F)nn2-c2ccc(S(N)(=O)=O)cc2)cc1 [Celecoxib], the “Effect of compressive stress, read as ASM cell contraction in response to 0h and 3h-pressure samples” value ([1]; both stabilized and pre-treated epithelial samples) was “suppresses the effects of compressive stress”, the “Effect of compressive stress on epithelial cells, read as ASM cell contraction in response to 0h and 3h-pressure epithelial samples” value ([1]; epithelial cells treated with drug, 30 cmH2O, 0h vs 3h pressure) was “suppressed the effects of compressive stress on epithelial cells” and the “ASM response to stabilized infranatant from drug-treated epithelial cells” value ([1]; stabilized: drug remains in the infranatant) was “causes contraction”. The “Upregulation of CTGF mRNA by compressive stress” value (airway epithelial cells) was “did not suppress the effect of compressive stress on CTGF”, the “YAP1 mRNA expression” value (airway epithelial cells) was “reduced YAP1 expression” and the “PGE2 content of the infranatants” value (NHBE cells) was “less PGE2 production and suppression of the effects of compressive stress”.
